Data reported in PubChem BioAssay AID2551 (National Center for Advancing Translational Sciences (NCATS), 2010).
The campaign covered roughly 310,000 compounds. About 17,000 (5.5%) were called active. This list was built around the results that the source calls inconclusive (neither active nor inactive); the mix of calls is not that of the screen. Calls follow the shape of the dose curve; as a rule, active = well fitted inhibition curve with a large enough effect; inconclusive = small, poorly fitted or top-dose-only effect, or effect the other way; inactive = no such curve, though single readings can be large or run the other way. A potency beside an inconclusive call is a rough fit, not a confirmed value.

The chains behind the UniProt entries cited, without tags or fusion partners. Where a name states a change or a piece, a line headed by the entry shows the natural chain unless it says otherwise.
UniProt P51450: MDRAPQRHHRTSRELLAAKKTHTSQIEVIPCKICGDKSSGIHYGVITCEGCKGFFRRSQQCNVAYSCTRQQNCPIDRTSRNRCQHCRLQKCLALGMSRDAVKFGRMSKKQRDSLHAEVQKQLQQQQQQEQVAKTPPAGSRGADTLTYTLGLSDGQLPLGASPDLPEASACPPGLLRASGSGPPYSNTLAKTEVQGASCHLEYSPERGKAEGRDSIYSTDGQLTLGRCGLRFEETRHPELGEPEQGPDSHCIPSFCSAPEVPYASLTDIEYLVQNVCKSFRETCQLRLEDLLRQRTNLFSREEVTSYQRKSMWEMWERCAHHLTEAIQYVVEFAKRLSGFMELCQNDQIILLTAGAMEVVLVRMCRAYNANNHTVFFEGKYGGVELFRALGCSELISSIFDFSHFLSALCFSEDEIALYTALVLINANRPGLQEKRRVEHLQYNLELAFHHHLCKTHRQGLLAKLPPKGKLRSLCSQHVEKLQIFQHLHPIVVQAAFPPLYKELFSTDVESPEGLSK

Target: Nuclear receptor ROR-gamma (Mus musculus) (UniProt P51450)
Experiment: qHTS for inhibitors of ROR gamma transcriptional activity; also: nearly all actives have a fitted effect of over 60% in size
Conditions: Drosophila S2 Gal4-RORgamma UAS-luciferase reporter, 20 h; series mostly up to 53.6 µM
Procedure, shortened: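 Drosophila S2 cells stably expressing Gal4-DBD/mouse RORγ fusion under metallothionein promoter plus UAS-luciferase; compound 1 h, then 700 uM CuSO4 induction for 20 h at ambient temperature; inhibition read as reduced luminescence.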
Potency is read from the fitted curve at half-maximal effect.

Row | SMILES | Potency
1 | C=CCn1nc([N+](=O)[O-])nc1Sc1cccc2cccnc12 | active: 8.91 µM
2 | CCC1CCCCN1C(=O)CSc1nnc(CNC(=O)COc2ccc(Cl)cc2)o1 (stereo not drawn) | inconclusive: 22.4 µM [inhibitor, single point]
3 | Cc1oc(-c2ccccc2F)nc1CS(=O)CC(=O)NCc1ccccn1 (stereo not drawn) | inconclusive: 2.24 µM [inhibitor, partial curve]
4 | O=C(CSC1=Nc2ccccc2C2=NC(c3ccccc3)C(=O)N12)NC1CCCCC1 (stereo not drawn) | inactive
5 | NC(=O)c1ccc(NC(=O)CSc2nncn2-c2ccccc2)cc1 | inactive
6 | CCCc1ccc2oc(C(=O)N3CCC[C@H]3CO)c(C)c2c1 | inconclusive: 7.94 µM [activator, partial curve, poor fit]
7 | O=C(NCc1c(O)ccc2ccccc12)c1ccccc1 | inconclusive: 15.8 µM [activator, partial curve]
8 | CCCCC(=O)Nc1ccc(C(=O)Nc2ccc(S(=O)(=O)Nc3ccc(C)cc3)cc2)cc1 | inconclusive: 35.5 µM [inhibitor, single point]
9 | CN(C)c1ccc(Nc2c3c4c(cccc4n(C)c2=O)C(=O)c2ccccc2-3)cc1 | inconclusive: 12.6 µM [inhibitor, partial curve]
10 | Clc1ccc(CCNc2nc3ccccc3s2)cc1 | active: 11.2 µM
11 | O=C(NCc1ccco1)c1nc2c(nnn2Cc2ccccc2Cl)c(=O)[nH]1 | active: 14.1 µM
12 | CCOc1cc(OCC)cc(C(=O)NC(=S)Nc2cccc(C(F)(F)F)c2)c1 | active: 5.01 µM
13 | O=C(/C=C/c1ccccc1F)c1cccc([N+](=O)[O-])c1 | inconclusive: 35.5 µM [inhibitor, single point]
14 | CCOc1ccccc1NC(=O)C(Sc1nnc2ccccn12)c1ccccc1 (stereo not drawn) | inconclusive: 0.501 µM [inhibitor, single point]
15 | CCc1ccc(O)c(-c2cc(C(=O)Nc3cccnc3)[nH]n2)c1 | inconclusive: 15.8 µM [activator, single point]
16 | O=C(C1CCC1)N1CCc2cc(S(=O)(=O)Nc3ccc4c(c3)OCCO4)ccc21 | inconclusive: 35.5 µM [activator, single point]
17 | Oc1ccc(N=Nc2c(O)ccc3ccccc23)cc1 | inconclusive: 35.5 µM [inhibitor, single point]
18 | CN(C(=O)CCl)C1CCCc2ccccc21 (stereo not drawn) | inconclusive: 0.891 µM [inhibitor, partial curve, poor fit]
19 | CCOC(=O)c1c(NC(=O)Cn2nc(C(F)(F)F)cc2C)sc2c1CCC2 | inconclusive: 31.6 µM [activator, single point]
20 | Cc1cc2c(NC3CCCCC3)ncnc2s1 | inconclusive: 6.31 µM [activator, single point]
21 | CCOC(=O)c1ccccc1NC(=O)c1ccc2c(=O)n3c(nc2c1)CCCCC3 | inconclusive: 11.2 µM [activator, partial curve]
22 | COC(=O)c1ccc(NC(=O)c2ccc3c(c2)C(=O)N(Cc2cccnc2)C3=O)cc1 | inconclusive: 17.8 µM [activator, single point]
23 | COc1ccc(/C=C/C(=O)NC(=S)N2CCCCC2)cc1OC | inconclusive: 25.1 µM [inhibitor, single point]
24 | COC(=O)c1ccccc1NC(=O)CN1CCc2ccccc2C1 | inconclusive: 17.8 µM [activator, single point]
25 | O=C(Cc1cc(=O)[nH]c(=O)[nH]1)N1CCN(C(=O)c2ccco2)CC1 | inactive

Row | SMILES | Potency
26 | COc1ccccc1NC(=O)C(C(C)C)N1C(=O)c2ccccc2C1=O (stereo not drawn) | inactive
27 | Cn1cc(CC(=O)NCCN2CCOCC2)c2ccccc21 | inactive
28 | Cc1ccc(OC[C@H](O)[C@H](C)NC(C)C)c2c1CCC2 | inconclusive: 35.5 µM [inhibitor, partial curve, poor fit]
29 | CCCc1c(C(=O)N/N=C/c2ccccc2C(F)(F)F)nnn1-c1nonc1N | inactive
30 | COC(=O)c1cccc(Cn2c(Cl)c(/C=N/NC(=O)c3ccco3)sc2=O)c1 | inconclusive: 28.2 µM [inhibitor, single point]
31 | COc1ccc2nc(NCCO)[nH]c2c1 | inactive
32 | O=C(Nc1ccccc1C(=O)Nc1ccccn1)c1ccccc1F | inconclusive: 14.1 µM [activator, single point]
33 | COc1ccc(-n2c(N)c(-c3nc4ccccc4n3C)sc2=S)cc1 | active: 6.31 µM
34 | CN(C)C(=O)c1ccc(-c2ccc3ncnc(N4CCOCC4)c3c2)cc1 | inactive
35 | Cc1ccc(S(=O)(=O)NCCC(=O)Nc2cccc(S(N)(=O)=O)c2)cc1C | inactive
36 | Cc1ccc(NC(=S)N(CCN(C)C)Cc2cccs2)cc1 | inconclusive: 10 µM [inhibitor, partial curve]
37 | COCCNC(=S)NCc1ccc2[nH]c3c(c2c1)CCCC3 | active: 20 µM
38 | Fc1cccc(C2NN=C(c3ccccc3)S2)c1 (stereo not drawn) | inconclusive: 20 µM [inhibitor, single point]
39 | Cc1ccc(SCCN2CCN(CCc3ccccc3)CCC2=O)cc1 | inactive
40 | CC[C@@H](C)[C@H](NC(=O)OC(C)(C)C)c1nnc(S(=O)(=O)Cc2cc(C)ccc2C)o1 | inconclusive: 5.62 µM [inhibitor, partial curve, poor fit]
41 | COc1cc(C2C=C(c3cccs3)Nc3ncnn32)cc(OC)c1OC (stereo not drawn) | inconclusive: 14.1 µM [inhibitor, single point]
42 | O=C(NCCOc1ccccc1F)Nc1ccc(Br)cc1 | inconclusive: 11.2 µM [activator, partial curve, poor fit]
43 | CCCN1C2CCCC1CC(NC(=O)c1ccc(F)cc1)C2 (stereo not drawn) | inconclusive: 6.31 µM [inhibitor, single point]
44 | CC(C)N(Cc1nc(-c2ccc3c(c2)OCO3)no1)Cc1nccn1C | active: 14.1 µM
45 | COC(=O)[C@@]1(Cc2ccc(F)cc2)[C@H]2c3cc(C(=O)N(C)C)n(Cc4ccccc4)c3C[C@H]2CN1C(=O)c1ccccc1 | inconclusive: 35.5 µM [activator, single point]
46 | Cc1oc(-c2ccc(Cl)cc2)nc1CN1CCCC(C(=O)NCc2ccccn2)C1 (stereo not drawn) | inconclusive: 17.8 µM [inhibitor, single point]
47 | Fc1ccccc1/C=N/n1cc(-c2ccccc2)[nH]c1=S | active: 1.41 µM
48 | O=C(NC(=S)NC(=O)c1ccccc1F)c1ccccc1F | inconclusive: 35.5 µM [inhibitor, single point]
49 | O=C(CSc1nnc(-c2ccc(O)cc2)n1-c1ccccc1)CC(=O)Nc1ccccc1 | inconclusive: 20 µM [activator, single point]
50 | O=C(CCn1c(=O)[nH]c2ccccc2c1=O)NCCCN1CCN(c2cccc(Cl)c2)CC1 | inconclusive: 35.5 µM [inhibitor, single point]

From no. 41 up to 43, copied from above:
Row | SMILES | Potency
41 | COc1cc(C2C=C(c3cccs3)Nc3ncnn32)cc(OC)c1OC (stereo not drawn) | inconclusive: 14.1 µM [inhibitor, single point]
42 | O=C(NCCOc1ccccc1F)Nc1ccc(Br)cc1 | inconclusive: 11.2 µM [activator, partial curve, poor fit]
43 | CCCN1C2CCCC1CC(NC(=O)c1ccc(F)cc1)C2 (stereo not drawn) | inconclusive: 6.31 µM [inhibitor, single point]

Additional results follow.

Row | SMILES | Potency
51 | Nc1cc([N+](=O)[O-])ccc1Nc1ccccc1 | inconclusive: 10 µM [activator, partial curve]
52 | CCCCCCCNC(=O)C1(CC2CC(c3ccc(Cl)cc3)=NO2)CCN(C(=O)c2cc(OCC)c(OCC)c(OCC)c2)CC1 (stereo not drawn) | inactive
53 | O=S(=O)(Nc1cc2nc3ccccc3nc2n1Cc1ccccc1)c1ccc(Cl)cc1 | inconclusive: 17.8 µM [inhibitor, single point]
54 | CCC1CCCCN1CCCNC(=O)c1ccc2c(c1)NC(=O)CN2C (stereo not drawn) | inactive
55 | O=S(=O)([N-]c1nc2ccccc2nc1-n1cc[n+](Cc2ccccc2)c1)c1ccccc1 | inactive
56 | O=C(Cc1ccc(Cl)cc1)N/N=C1\CCCc2ccccc21 | inconclusive: 1.78 µM [activator, full curve, poor fit]
57 | CN1CCN(C2=C(NS(=O)(=O)c3ccccc3)C(=O)c3ccccc3C2=O)CC1 | active: 11.2 µM
58 | Cc1nnc2n(Cc3ccccc3)c(=O)c3c4c(sc3n12)CCCC4 | active: 11.2 µM
59 | CCOc1ccc(/C=N/n2cnnc2)cc1 | inactive
60 | CCCCNc1c2c3c(cccc3n(C)c1=O)C(=O)c1ccccc1-2 | inconclusive: 3.55 µM [activator, partial curve]
61 | Cc1cccc(NCc2nc(SCC(N)=O)n[nH]2)c1 | inactive
62 | O=C(NCCN1CCOCC1)C1(C(F)(F)F)C/C(=C\Cc2ccccc2)CCCO1 (stereo not drawn) | inconclusive: 12.6 µM [activator, single point]
63 | CCn1c(=S)[nH]c2sc3c(c2c1=O)CCCCC3 | active: 0.447 µM
64 | N#Cc1ccc(NC(=O)Nc2ccc(Cl)cc2)cc1 | inconclusive: 2.51 µM [activator, full curve, poor fit]
65 | NNc1nc2c(F)cccc2s1 | active: 15.8 µM
66 | COc1ccc(N=c2oc3cc(O)ccc3cc2C(=O)NCC2CCCO2)cc1 (stereo not drawn) | inactive
67 | CN(C)CCNS(=O)(=O)c1ccc(N2CCN(c3ccc(F)cc3)CC2)c([N+](=O)[O-])c1 | inactive
68 | CC(C)(C)NC(=O)/C=C/c1cccc(C(F)(F)F)c1 | inconclusive: 17.8 µM [activator, single point]
69 | Cc1c(C(=O)NCc2cccnc2)sc2nc(-c3ccccc3)cn12 | inactive
70 | CC[C@H](C)[C@H](NC(=O)c1ccc(Cl)cc1)C(=O)OCC(=O)c1ccc2c(c1)NC(=O)CO2 | inactive
71 | COc1ccc(CCN(C)C(=O)c2cccc(S(=O)(=O)NCc3ccccc3)c2)cc1OC | inconclusive: 17.8 µM [activator, single point]
72 | Cc1cccc(C)c1OCc1nnc(SCC(=O)Nc2nccs2)n1-c1ccccc1 | inconclusive: 35.5 µM [inhibitor, single point]
73 | Cc1cc(=O)[nH]c(-n2ncc(C#N)c2N)n1 | inconclusive: 20 µM [inhibitor, single point]
